{"source": "the supplement of paper PMC12819154", "about": "“High-throughput peptide-centric local stability assay extends protein–ligand identification to membrane proteins, tissues and bacteria” (Nature Structural & Molecular Biology, 2025)", "note": "This is one part of the list. Most entries show no effect beyond the scatter of the controls.", "data": [{"compound": "CN[C@@H]1C[C@H]2O[C@@](C)([C@@H]1OC)n1c3ccccc3c3c4c(c5c6ccccc6n2c5c31)C(=O)NC4 [staurosporine]", "test": "log2 fold change of tryptic peptide abundance, ligand vs vehicle (limited proteolysis) (log2 ratio); higher = more trypsin-susceptible (destabilized)", "settings": "ligand concentration: 20 uM; sample: mouse liver crude lysate; replicate design: treated separately", "values": [{"target": "UniProt Q9D0C1 (peptide sequence: LPEYICPR, peptide start residue: 33)", "log2 fold change": -0.234}, {"target": "UniProt Q9CRC9 (peptide sequence: TLAMDTILANAK, peptide start residue: 161)", "log2 fold change": -0.198}, {"target": "UniProt Q9CR86 (peptide sequence: DRSPSPLR, peptide start residue: 29)", "log2 fold change": -0.139}, {"target": "UniProt Q9CZT8 (peptide sequence: LVDAICDK, peptide start residue: 179)", "log2 fold change": 0.0775}, {"target": "UniProt Q9CXW3 (peptide sequence: TDTVIILCR, peptide start residue: 148)", "log2 fold change": -0.314}, {"target": "UniProt Q9D023 (peptide sequence: KLRPLYNHPAGPR, peptide start residue: 27)", "log2 fold change": -0.152}, {"target": "UniProt Q9CRC3 (peptide sequence: KSDVVLDK, peptide start residue: 88)", "log2 fold change": -0.292}, {"target": "UniProt Q9D0I4 (peptide sequence: HQINIEK, peptide start residue: 35)", "log2 fold change": -0.291}, {"target": "UniProt Q9CXF0 (peptide sequence: LQLIPGANGFR, peptide start residue: 320)", "log2 fold change": -0.194}, {"target": "UniProt Q9CRB6 (peptide sequence: VINYEEFKK, peptide start residue: 69)", "log2 fold change": 0.349}, {"target": "UniProt Q9CY27 (peptide sequence: SLKDEDVLQK, peptide start residue: 58)", "log2 fold change": 0.196}, {"target": "UniProt Q9CYP7 (peptide sequence: LYSDIGHLLDEK, peptide start residue: 367)", "log2 fold change": 0.166}, {"target": "UniProt Q9CWK8 (peptide sequence: YWEAFLPEAK, peptide start residue: 507)", "log2 fold change": 0.0934}, {"target": "UniProt Q9CXE7 (peptide sequence: SGHIQTLLR, peptide start residue: 170)", "log2 fold change": -0.297}, {"target": "UniProt Q9D0R9 (peptide sequence: IEDQFASLHIVR, peptide start residue: 4)", "log2 fold change": 0.482}, {"target": "UniProt Q9CU62 (peptide sequence: DCIQYIKEQR, peptide start residue: 555)", "log2 fold change": -0.561}, {"target": "UniProt Q9CWG8 (peptide sequence: STGPITVAEYMK, peptide start residue: 48)", "log2 fold change": 0.249}, {"target": "UniProt Q9CY62 (peptide sequence: HELPTDDDSYEEHKKDK, peptide start residue: 130)", "log2 fold change": 0.211}, {"target": "UniProt Q9D0D3 (peptide sequence: SNSPDSSTDTSGKR, peptide start residue: 566)", "log2 fold change": -0.413}, {"target": "UniProt Q9D0V7 (peptide sequence: REPLNFGVPDGSTGFSSR, peptide start residue: 113)", "log2 fold change": -0.416}, {"target": "UniProt Q9CR89 (peptide sequence: LGSYKPVR, peptide start residue: 349)", "log2 fold change": 0.555}, {"target": "UniProt Q9D0A3 (peptide sequence: KVNTGFLMSSYK, peptide start residue: 90)", "log2 fold change": 0.15}, {"target": "UniProt Q9CXU0 (peptide sequence: LNFIVTGLQDIDKCR, peptide start residue: 41)", "log2 fold change": -0.326}, {"target": "UniProt Q9CWN7 (peptide sequence: QSELPTQSK, peptide start residue: 224)", "log2 fold change": -0.0675}, {"target": "UniProt Q9CY18 (peptide sequence: GEFDSSEFEVR, peptide start residue: 61)", "log2 fold change": -0.436}, {"target": "UniProt Q9CZH7 (peptide sequence: EELEEEHR, peptide start residue: 134)", "log2 fold change": 0.325}, {"target": "UniProt Q9D110 (peptide sequence: VIAHNQYQNSK, peptide start residue: 40)", "log2 fold change": -0.112}, {"target": "UniProt Q9D009 (peptide sequence: GGLTPEETTR, peptide start residue: 63)", "log2 fold change": 0.0461}, {"target": "UniProt Q9CX98 (peptide sequence: PLVGNFGHLLVPR, peptide start residue: 58)", "log2 fold change": 1.07}, {"target": "UniProt Q9CRA5 (peptide sequence: KVQEAVLDKWVNDPHR, peptide start residue: 216)", "log2 fold change": -1.49}, {"target": "UniProt Q9CY66 (peptide sequence: FLPRPPGEK, peptide start residue: 168)", "log2 fold change": 0.141}, {"target": "UniProt Q9CRD2 (peptide sequence: ILQEDPTNTAAR, peptide start residue: 113)", "log2 fold change": -0.282}, {"target": "UniProt Q9CXR1 (peptide sequence: NNLDPDLPYK, peptide start residue: 322)", "log2 fold change": -0.186}, {"target": "UniProt Q9CRG1 (peptide sequence: IKELFQK, peptide start residue: 547)", "log2 fold change": -0.0351}, {"target": "UniProt Q9D020 (peptide sequence: SHGLLIEQGIPK, peptide start residue: 151)", "log2 fold change": 0.495}, {"target": "UniProt Q9CRA7 (peptide sequence: DKEYLAQVFK, peptide start residue: 178)", "log2 fold change": -0.862}]}]}
